# Measured values taken from patent publication US9862762B2, “Monoclonal antibodies which bind human periostin” (MEDIMMUNE, LLC, priority 2014, dated 2018).
# For at least one compound, name, drawing or mass did not settle the structure.
# System: EPIAIRWAY tissue (normal and asthmatic lung epithelium)
# Experiment: Periostin levels in IL-13 stimulated […] tissue models
# Format: cell-based, human
# Conditions: pre-treated 6 hrs with 100 nM budesonide, 50 ng/mL IL-13 ± budesonide 48 hours (FIG. 6)
# Procedure: FIG. 6: Periostin levels in IL-13 Stimulated […]™ Models (Normal and Asthmatic Lung Epithelium). Detection of periostin levels in […]™ tissue obtained from either normal healthy individuals or from asthma patients each receiving different treatments: Advair only; oral and inhaled steroids; no medication; or albuterol only. Periostin levels were determined using the biotin/streptavidin-HRP sandwich ELISA assay using 4B4.B11 as the capture antibody and biotinylated 7B5.C4 as the detection antibody. Samples receiving steroid were pre-treated for 6 hrs with 100 nM budesonide. Samples were either unstimulated or stimulated with 50 ng/mL IL-13±budesonide for 48 hours. Periostin levels increase following stimulation with IL-13. This increase is reduced with steroid treatment.
# The assay provided in this disclosure was further used to measure periostin levels in the […]™ tissue model. EpiAirway tissue models were obtained from MatTek corporation. These tissues are a 3-D model of respiratory tract tissue obtained from either normal healthy individuals or from asthma patients. The model was used to evaluate 1 normal donor and 4 asthma donors. The 4 asthma donors each had received different treatments: Advair only; oral and inhaled steroids; no medication; or albuterol only. All tissue samples were cultured in appropriate cell culture media (provided from MatTek) for 24 hrs prior to stimulation. […]
compound,measurement,value
CCCC1O[C@@H]2C[C@H]3[C@@H]4CCC5=CC(=O)C=C[C@]5(C)[C@H]4[C@@H](O)C[C@]3(C)[C@]2(C(=O)CO)O1 (stereo partly shown) [budesonide],IL-13-induced increase of periostin levels,reduced
